Data published in the supplement of paper PMC10849652.
This is one part of the list.

Chains of the proteins cited; added tags and fusions are not shown. Lines headed by an entry give the natural chain unless they say otherwise; changes in a name come on top.
UniProt P55008: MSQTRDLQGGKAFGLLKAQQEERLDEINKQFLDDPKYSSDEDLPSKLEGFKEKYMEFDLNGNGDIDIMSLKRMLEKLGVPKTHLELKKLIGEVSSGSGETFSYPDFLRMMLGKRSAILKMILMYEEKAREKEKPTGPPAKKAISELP
UniProt O95573: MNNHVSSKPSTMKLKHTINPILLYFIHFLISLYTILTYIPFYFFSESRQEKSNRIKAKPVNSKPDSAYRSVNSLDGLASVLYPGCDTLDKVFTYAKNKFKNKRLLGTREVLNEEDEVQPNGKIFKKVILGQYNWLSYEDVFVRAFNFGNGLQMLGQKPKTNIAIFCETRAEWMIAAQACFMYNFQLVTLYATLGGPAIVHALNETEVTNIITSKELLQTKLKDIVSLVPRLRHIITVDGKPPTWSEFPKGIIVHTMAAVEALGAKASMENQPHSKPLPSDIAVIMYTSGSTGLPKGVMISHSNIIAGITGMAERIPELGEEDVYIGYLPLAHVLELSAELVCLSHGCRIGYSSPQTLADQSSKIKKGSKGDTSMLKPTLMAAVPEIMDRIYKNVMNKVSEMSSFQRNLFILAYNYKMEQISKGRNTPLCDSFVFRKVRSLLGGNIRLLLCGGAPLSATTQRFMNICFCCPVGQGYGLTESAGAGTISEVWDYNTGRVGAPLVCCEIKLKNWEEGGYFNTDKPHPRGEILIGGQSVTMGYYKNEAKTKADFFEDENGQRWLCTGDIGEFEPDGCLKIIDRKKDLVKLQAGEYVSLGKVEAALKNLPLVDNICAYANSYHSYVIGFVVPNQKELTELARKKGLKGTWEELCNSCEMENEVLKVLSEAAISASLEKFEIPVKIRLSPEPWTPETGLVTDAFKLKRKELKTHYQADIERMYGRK
UniProt Q8NHP1: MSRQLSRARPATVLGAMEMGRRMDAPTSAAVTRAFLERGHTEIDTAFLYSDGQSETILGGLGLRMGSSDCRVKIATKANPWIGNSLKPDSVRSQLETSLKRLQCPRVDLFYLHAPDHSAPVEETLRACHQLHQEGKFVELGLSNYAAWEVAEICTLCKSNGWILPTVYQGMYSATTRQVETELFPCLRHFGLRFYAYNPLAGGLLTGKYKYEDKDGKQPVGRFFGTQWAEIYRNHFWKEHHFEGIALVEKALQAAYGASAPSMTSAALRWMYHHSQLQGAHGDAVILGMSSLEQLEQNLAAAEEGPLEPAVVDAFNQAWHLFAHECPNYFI
UniProt O95831, whole entry, looked up: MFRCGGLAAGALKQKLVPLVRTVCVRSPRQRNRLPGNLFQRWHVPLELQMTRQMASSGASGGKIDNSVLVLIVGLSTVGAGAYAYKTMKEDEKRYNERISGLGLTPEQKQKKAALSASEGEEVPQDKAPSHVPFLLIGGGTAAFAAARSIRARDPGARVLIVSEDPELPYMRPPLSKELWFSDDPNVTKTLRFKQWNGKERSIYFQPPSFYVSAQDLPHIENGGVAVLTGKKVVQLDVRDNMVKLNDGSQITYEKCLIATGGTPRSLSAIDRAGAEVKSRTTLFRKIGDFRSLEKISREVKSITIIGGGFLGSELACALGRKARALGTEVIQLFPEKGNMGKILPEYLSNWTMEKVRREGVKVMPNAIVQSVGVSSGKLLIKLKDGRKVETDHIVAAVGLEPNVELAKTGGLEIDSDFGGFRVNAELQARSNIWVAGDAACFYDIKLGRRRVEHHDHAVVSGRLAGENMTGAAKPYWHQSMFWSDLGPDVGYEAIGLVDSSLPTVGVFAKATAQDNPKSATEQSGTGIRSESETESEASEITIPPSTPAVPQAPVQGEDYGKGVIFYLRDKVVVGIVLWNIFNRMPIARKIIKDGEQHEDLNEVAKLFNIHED
UniProt Q9UNA0: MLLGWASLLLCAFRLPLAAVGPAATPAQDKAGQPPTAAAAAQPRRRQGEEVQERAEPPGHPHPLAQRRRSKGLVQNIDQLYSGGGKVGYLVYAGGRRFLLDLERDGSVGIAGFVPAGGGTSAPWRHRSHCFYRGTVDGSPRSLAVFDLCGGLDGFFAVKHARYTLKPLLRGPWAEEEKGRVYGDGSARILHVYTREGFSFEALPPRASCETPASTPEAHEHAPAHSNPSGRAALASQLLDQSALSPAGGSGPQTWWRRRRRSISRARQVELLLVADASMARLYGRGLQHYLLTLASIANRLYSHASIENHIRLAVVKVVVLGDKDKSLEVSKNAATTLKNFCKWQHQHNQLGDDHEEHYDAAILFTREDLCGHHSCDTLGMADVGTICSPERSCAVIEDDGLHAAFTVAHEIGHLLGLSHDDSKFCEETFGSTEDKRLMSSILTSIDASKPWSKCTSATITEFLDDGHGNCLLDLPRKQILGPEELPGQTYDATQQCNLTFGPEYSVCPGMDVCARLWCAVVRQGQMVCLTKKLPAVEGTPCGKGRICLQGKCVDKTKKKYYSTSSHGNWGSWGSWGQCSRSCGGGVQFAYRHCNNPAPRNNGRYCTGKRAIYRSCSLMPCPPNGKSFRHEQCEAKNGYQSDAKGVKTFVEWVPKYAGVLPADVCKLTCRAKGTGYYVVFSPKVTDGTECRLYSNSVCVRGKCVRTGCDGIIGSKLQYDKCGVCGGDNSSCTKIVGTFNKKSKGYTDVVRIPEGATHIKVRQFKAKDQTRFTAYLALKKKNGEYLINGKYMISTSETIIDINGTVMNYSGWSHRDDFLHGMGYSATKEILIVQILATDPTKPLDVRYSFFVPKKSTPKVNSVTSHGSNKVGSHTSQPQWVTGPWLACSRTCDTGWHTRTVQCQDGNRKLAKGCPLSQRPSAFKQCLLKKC
UniProt Q9NUB1: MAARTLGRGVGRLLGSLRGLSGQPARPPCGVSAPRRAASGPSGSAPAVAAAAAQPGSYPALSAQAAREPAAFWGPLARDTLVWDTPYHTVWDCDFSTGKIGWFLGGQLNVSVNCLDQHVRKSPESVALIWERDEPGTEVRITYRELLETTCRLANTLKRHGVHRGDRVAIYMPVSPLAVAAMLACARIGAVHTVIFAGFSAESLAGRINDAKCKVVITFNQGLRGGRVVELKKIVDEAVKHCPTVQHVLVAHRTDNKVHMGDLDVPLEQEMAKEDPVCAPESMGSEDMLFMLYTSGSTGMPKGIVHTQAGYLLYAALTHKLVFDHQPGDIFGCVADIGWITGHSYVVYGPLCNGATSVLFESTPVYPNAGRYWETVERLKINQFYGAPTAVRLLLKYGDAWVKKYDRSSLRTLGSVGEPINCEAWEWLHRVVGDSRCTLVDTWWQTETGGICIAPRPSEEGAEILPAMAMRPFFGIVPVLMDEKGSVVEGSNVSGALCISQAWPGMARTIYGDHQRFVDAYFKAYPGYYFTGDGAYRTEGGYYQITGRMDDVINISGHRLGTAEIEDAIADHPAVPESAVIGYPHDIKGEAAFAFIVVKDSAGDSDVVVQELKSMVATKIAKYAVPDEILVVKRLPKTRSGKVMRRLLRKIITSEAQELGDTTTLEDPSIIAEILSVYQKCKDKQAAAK
UniProt Q15067: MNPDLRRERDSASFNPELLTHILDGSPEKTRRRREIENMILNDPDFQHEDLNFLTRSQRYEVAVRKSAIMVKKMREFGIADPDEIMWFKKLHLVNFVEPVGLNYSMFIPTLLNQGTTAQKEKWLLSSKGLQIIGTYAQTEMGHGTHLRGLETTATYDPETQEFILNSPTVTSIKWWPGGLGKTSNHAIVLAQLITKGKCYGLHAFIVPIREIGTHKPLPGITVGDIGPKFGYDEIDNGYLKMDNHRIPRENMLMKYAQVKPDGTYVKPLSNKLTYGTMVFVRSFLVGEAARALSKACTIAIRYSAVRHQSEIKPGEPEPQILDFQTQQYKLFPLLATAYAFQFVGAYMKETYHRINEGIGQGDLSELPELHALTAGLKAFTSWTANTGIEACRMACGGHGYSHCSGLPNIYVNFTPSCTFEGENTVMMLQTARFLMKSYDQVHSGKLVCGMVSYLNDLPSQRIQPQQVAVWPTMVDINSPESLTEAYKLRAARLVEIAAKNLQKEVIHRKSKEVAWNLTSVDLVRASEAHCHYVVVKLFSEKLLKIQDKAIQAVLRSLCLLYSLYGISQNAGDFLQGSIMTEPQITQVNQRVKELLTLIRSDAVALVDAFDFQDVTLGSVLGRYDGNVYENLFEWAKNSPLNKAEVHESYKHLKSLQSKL
UniProt P30520: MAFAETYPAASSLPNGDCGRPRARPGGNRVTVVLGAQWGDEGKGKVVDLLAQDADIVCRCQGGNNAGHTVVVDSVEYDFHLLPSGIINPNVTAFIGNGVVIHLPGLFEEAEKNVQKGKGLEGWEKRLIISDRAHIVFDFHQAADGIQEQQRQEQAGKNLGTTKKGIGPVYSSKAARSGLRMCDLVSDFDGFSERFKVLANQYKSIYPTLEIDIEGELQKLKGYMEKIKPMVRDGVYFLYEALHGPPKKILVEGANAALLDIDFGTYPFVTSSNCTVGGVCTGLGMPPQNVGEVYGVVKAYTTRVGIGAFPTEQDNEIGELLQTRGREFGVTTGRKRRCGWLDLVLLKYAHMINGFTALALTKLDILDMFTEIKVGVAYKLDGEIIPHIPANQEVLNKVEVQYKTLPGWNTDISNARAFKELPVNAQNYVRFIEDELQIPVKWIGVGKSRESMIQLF
UniProt Q9NUQ2: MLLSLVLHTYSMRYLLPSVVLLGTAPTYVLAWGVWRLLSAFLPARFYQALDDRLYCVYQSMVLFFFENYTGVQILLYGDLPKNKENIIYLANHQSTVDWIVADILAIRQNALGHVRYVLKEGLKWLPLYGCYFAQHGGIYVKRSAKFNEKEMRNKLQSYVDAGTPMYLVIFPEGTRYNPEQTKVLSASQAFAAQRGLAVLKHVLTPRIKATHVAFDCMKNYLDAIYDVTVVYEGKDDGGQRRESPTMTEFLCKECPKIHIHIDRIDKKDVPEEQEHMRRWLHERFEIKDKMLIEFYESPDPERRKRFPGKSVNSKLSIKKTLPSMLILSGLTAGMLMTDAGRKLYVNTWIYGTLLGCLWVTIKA
UniProt P51825: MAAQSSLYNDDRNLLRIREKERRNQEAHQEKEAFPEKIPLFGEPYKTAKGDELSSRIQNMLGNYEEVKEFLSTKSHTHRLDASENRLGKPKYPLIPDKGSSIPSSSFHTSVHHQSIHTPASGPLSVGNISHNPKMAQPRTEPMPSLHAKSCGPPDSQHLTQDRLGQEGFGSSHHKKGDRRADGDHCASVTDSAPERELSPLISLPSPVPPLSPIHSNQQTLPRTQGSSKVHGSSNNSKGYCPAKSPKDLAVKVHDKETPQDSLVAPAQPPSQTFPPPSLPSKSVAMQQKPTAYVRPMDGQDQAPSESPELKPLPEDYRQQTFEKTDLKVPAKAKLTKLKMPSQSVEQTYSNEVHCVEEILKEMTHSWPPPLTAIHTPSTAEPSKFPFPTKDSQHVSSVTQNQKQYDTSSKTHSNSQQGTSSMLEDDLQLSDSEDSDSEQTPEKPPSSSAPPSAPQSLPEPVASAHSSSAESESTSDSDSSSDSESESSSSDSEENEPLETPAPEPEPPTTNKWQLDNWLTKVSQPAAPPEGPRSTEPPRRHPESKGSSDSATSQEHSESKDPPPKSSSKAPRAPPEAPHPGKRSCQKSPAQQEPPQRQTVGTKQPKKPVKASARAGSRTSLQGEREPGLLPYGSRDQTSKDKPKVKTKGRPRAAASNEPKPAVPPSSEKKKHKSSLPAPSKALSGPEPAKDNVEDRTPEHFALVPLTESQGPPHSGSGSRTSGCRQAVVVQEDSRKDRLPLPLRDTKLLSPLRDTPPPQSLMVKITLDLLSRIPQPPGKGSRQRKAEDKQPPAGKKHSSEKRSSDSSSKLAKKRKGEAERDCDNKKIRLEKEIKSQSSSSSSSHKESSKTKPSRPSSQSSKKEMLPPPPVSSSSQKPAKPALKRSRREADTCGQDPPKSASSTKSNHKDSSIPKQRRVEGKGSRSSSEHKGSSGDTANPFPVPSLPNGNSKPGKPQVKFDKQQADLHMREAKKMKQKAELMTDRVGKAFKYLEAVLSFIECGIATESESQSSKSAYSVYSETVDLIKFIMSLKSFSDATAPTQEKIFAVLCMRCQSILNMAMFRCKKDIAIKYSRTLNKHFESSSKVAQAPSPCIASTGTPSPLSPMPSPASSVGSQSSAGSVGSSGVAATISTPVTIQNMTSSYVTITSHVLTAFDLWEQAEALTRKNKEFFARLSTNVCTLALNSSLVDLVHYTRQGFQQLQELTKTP
UniProt Q9NRZ7: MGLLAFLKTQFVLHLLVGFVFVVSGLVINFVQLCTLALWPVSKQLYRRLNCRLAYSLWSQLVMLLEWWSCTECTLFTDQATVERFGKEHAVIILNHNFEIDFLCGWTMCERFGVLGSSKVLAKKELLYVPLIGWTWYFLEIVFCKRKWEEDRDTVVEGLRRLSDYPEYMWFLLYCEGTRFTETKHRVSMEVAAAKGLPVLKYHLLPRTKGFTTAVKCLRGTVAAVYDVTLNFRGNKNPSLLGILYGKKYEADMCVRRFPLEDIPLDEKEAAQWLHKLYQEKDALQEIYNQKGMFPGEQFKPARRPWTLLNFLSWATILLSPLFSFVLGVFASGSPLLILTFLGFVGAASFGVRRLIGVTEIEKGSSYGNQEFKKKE

Tests used:
Assay in all cases: log2 fold change, soluble protein after heating vs DMSO (PISA); higher = thermal stabilisation; K562 lysate, 10 uM; active = over 0.2 and 3.5 SD of the protein, either way, in both replicates (recomputed)
nilotinib = compound: Cc1cn(-c2cc(NC(=O)c3ccc(C)c(Nc4nccc(-c5cccnc5)n4)c3)cc(C(F)(F)F)c2)cn1 [nilotinib]
Procedure, shortened: (§1)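 A 30 min treatment with 10 μM compound was applied to crude K562 extract at 1 mg/mL protein in PBS pH 7.4 with 1 mM MgCl2. Heating for 3 min spanned 48°C-58°C, after which aliquots were pooled, adjusted to 0.5% NP-40 at 4°C and spun at 21,000xg for 90 min. TMTpro 16plex LC-MS/MS of the supernatant, with channel sums equalised, gave values recorded as log-two fold change in thermal stability against solvent controls, from duplicates.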

[1] = compound: Cc1nc(Nc2n[nH]c3c2CN(C(=O)N[C@H](CN(C)C)c2ccccc2)C3(C)C)c2sccc2n1
Procedure, shortened: as §1

dasatinib = compound: Cc1nc(Nc2ncc(C(=O)Nc3c(C)cccc3Cl)s2)cc(N2CCN(CCO)CC2)n1 [dasatinib]
Procedure, shortened: as §1

[2] = compound: Cc1ncc(-c2ccnc(Nc3ccc(S(C)(=O)=O)cc3)n2)n1C(C)C
Procedure, shortened: as §1

[3] = compound: Cn1cc(-c2ccc3c(c2)CCN3C(=O)Cc2cccc(C(F)(F)F)c2)c2c(N)ncnc21
Procedure, shortened: as §1

quisinostat = compound: Cn1cc(CNCC2CCN(c3ncc(C(=O)NO)cn3)CC2)c2ccccc21 [quisinostat]
Procedure, shortened: as §1

tipifarnib = compound: Cn1cncc1[C@@](N)(c1ccc(Cl)cc1)c1ccc2c(c1)c(-c1cccc(Cl)c1)cc(=O)n2C [tipifarnib]
Procedure, shortened: as §1

[4] = compound: NC(=O)Nc1cc(-c2cccc(F)c2)sc1C(=O)N[C@H]1CCCNC1
Procedure, shortened: as §1

[5] = compound: NC(=O)c1cnc(N[C@@H]2CCCC[C@@H]2N)nc1Nc1cccc(-n2nccn2)c1
Procedure, shortened: as §1

[6] = compound: NC1(c2ccc(-c3nc4ccn5c(=O)[nH]nc5c4cc3-c3ccccc3)cc2)CCC1
Procedure, shortened: as §1

Measured: log2 fold change

AIF1 (UniProt P55008)
inactive: nilotinib 0.03 | [1] -0.045 | dasatinib -0.017 | [2] 0.018 | [3] 0.026 | quisinostat -0.029 | tipifarnib 0.101 | [4] 0.07 | [5] -0.031 | [6] 0.174

AK2 (UniProt P54819)
inactive: nilotinib 0.003 | [1] -0.006 | dasatinib 0.079 | [2] -0.013 | [3] -0.022 | quisinostat 0.024 | tipifarnib 0.007 | [4] -0.066 | [5] 0.013 | [6] 0.004

ACP1 (UniProt P24666)
inactive: nilotinib -0.015 | [1] 0.055 | dasatinib 0.013 | [2] 0.031 | [3] -0.028 | quisinostat 0.067 | tipifarnib 0.003 | [4] -0.009 | [5] -0.003 | [6] -0.018

ACSL3 (UniProt O95573)
inactive: nilotinib -0.006 | [1] -0.016 | dasatinib -0.034 | [2] -0.011 | [3] -0.017 | quisinostat -0.002 | tipifarnib -0.018 | [4] 0.015 | [5] -0.052 | [6] 0.027

AIP (UniProt O00170)
inactive: nilotinib 0.024 | [1] -0.001 | dasatinib 0.018 | [2] 0.028 | [3] 0.008 | quisinostat 0.007 | tipifarnib 0.027 | [4] -0.011 | [5] -0.016 | [6] 0.024

AKR7L (UniProt Q8NHP1)
inactive: nilotinib -0.128 | [1] 0.273 | dasatinib -0.111 | [2] -0.055 | [3] -0.125 | quisinostat 0.154 | tipifarnib -0.132 | [4] 0.055 | [5] 0.006

AIFM1 (UniProt O95831)
inactive: nilotinib 0.005 | [1] -0.016 | dasatinib 0.034 | [2] 0.003 | [3] -0.005 | quisinostat 0.045 | tipifarnib 0.043 | [4] -0.014 | [5] 0.021 | [6] 0.006

ACTA1 (UniProt P68133)
inactive: nilotinib -0.013 | [1] -0.02 | dasatinib -0.018 | [2] -0.009 | [3] -0.029 | quisinostat -0.035 | tipifarnib 0.016 | [4] 0.008 | [5] 0.003 | [6] -0.03

AFP (UniProt P02771)
inactive: nilotinib -0.037 | [1] 0.022 | dasatinib 0.054 | [2] -0.01 | [3] 0.024 | quisinostat 0.003 | tipifarnib -0.012 | [4] 0.02 | [5] -0.173 | [6] -0.012

ADAMTS5 (UniProt Q9UNA0)
inactive: nilotinib 0.003 | [1] -0.062 | dasatinib -0.01 | [2] -0.011 | [3] 0.014 | quisinostat -0.222 | tipifarnib -0.041 | [4] 0.016 | [5] 0.031 | [6] -0.083

Reprinted from the results shown (2 entries):
AIF1 (UniProt P55008)
inactive: nilotinib 0.03 | [1] -0.045 | dasatinib -0.017 | [2] 0.018 | [3] 0.026 | quisinostat -0.029 | tipifarnib 0.101 | [4] 0.07 | [5] -0.031 | [6] 0.174

AK2 (UniProt P54819)
inactive: nilotinib 0.003 | [1] -0.006 | dasatinib 0.079 | [2] -0.013 | [3] -0.022 | quisinostat 0.024 | tipifarnib 0.007 | [4] -0.066 | [5] 0.013 | [6] 0.004

More results follow:

AKAP12 (UniProt Q02952)
inactive: nilotinib -0.121 | [1] -0.063 | dasatinib 0.021 | [2] 0.155 | [3] -0.035 | quisinostat 0.025 | tipifarnib -0.042 | [4] -0.052 | [5] 0.032 | [6] -0.116

ADK (UniProt P55263)
inactive: nilotinib -0.028 | [1] 0.075 | dasatinib 0.463 | [2] 0.046 | [3] -0.005 | quisinostat -0.062 | tipifarnib 0.324 | [4] -0.023 | [5] -0.015 | [6] 0.016

ACSS1 (UniProt Q9NUB1)
inactive: nilotinib 0.086 | [1] 0.18 | dasatinib 0.055 | [2] 0.166 | [3] -0.113 | quisinostat -0.123 | tipifarnib 0.111 | [4] 0.072 | [5] 0.045

AGL (UniProt P35573)
inactive: nilotinib -0.024 | [1] -0.007 | dasatinib -0.027 | [2] -0.005 | [3] 0.028 | quisinostat -0.016 | tipifarnib 0.016 | [4] 0.038 | [5] 0.016 | [6] -0.007

ACTR6 (UniProt Q9GZN1)
inactive: nilotinib 0.056 | [1] -0.024 | dasatinib 0.049 | [2] -0.335 | [3] 0.077 | quisinostat -0.122 | tipifarnib 0.007 | [4] 0.049 | [5] 0.03 | [6] -0.08

ACOX1 isoform 2 (UniProt Q15067)
inactive: nilotinib 0.104 | [1] 0.005 | dasatinib 0.065 | [2] -0.011 | [3] 0.019 | quisinostat 0 | tipifarnib -0.042 | [4] -0.018 | [5] -0.039 | [6] 0

ADSS2 (UniProt P30520)
inactive: nilotinib 0.017 | [1] 0 | dasatinib 0.041 | [2] 0.023 | [3] -0.021 | quisinostat -0.021 | tipifarnib -0.01 | [4] -0.016 | [5] -0.005 | [6] -0.013

AHNAK (UniProt Q09666)
inactive: nilotinib 0.031 | [1] -0.013 | dasatinib 0.013 | [2] 0.023 | [3] -0.034 | quisinostat -0.001 | tipifarnib -0.008 | [4] -0.02 | [5] -0.024 | [6] 0.018

ADCK5 (UniProt Q3MIX3)
inactive: nilotinib -0.032 | [1] 0.019 | dasatinib -0.153 | [2] 0.105 | [3] -0.042 | quisinostat 0.018 | tipifarnib 0.11 | [4] -0.014 | [5] -0.033

AGPAT5 (UniProt Q9NUQ2)
inactive: nilotinib -0.016 | [1] -0.028 | dasatinib -0.035 | [2] -0.008 | [3] -0.035 | quisinostat 0.114 | tipifarnib 0.024 | [4] 0.002 | [5] 0.01 | [6] -0.018

AKR7A2 (UniProt O43488)
inactive: nilotinib 0.003 | [1] -0.003 | dasatinib -0.011 | [2] -0.036 | [3] 0.002 | quisinostat 0.05 | tipifarnib -0.001 | [4] -0.007 | [5] 0.009 | [6] 0

ACTN4 (UniProt K7EJH8)
inactive: nilotinib 0.036 | [1] -0.014 | dasatinib 0.076 | [2] 0.076 | [3] 0.004 | quisinostat -0.084 | tipifarnib 0.017 | [4] 0.107 | [5] -0.007

AFF1 isoform 2 (UniProt P51825)
inactive: nilotinib -0.069 | [1] 0.022 | dasatinib 0.059 | [2] 0.069 | [3] -0.043 | quisinostat -0.01 | tipifarnib 0.028 | [4] -0.005 | [5] 0.194 | [6] 0.008

ADI1 (UniProt Q9BV57)
inactive: nilotinib -0.003 | [1] -0.022 | dasatinib -0.017 | [2] -0.021 | [3] 0.03 | quisinostat -0.074 | tipifarnib -0.017 | [4] 0.003 | [5] -0.027 | [6] -0.012

ACSL1 (UniProt P33121)
inactive: nilotinib -0.004 | [1] -0.002 | dasatinib -0.132 | [2] 0.013 | [3] 0.05 | quisinostat 0.007 | tipifarnib -0.013 | [4] 0.034 | [5] -0.025 | [6] -0.04

ACSF3 (UniProt Q4G176)
inactive: nilotinib -0.017 | [1] 0.025 | dasatinib 0.005 | [2] 0.007 | [3] 0.033 | quisinostat -0.006 | tipifarnib -0.001 | [4] -0.011 | [5] 0.034 | [6] -0.062

AK4 (UniProt P27144)
inactive: nilotinib -0.006 | [1] 0.003 | dasatinib -0.04 | [2] 0.042 | [3] 0.04 | quisinostat -0.012 | tipifarnib 0.001 | [4] 0.018 | [5] -0.023 | [6] -0.012

ACOT7 isoform 7 (UniProt O00154)
inactive: nilotinib 0.01 | [1] 0.009 | dasatinib 0.019 | [2] -0.005 | [3] -0.005 | quisinostat 0.077 | tipifarnib -0.003 | [4] -0.032 | [5] 0.004 | [6] -0.007

ACTB (UniProt C9JTX5)
inactive: nilotinib -0.031 | [1] 0.111 | dasatinib -0.034 | [2] 0.163 | [3] -0.041 | quisinostat -0.047 | tipifarnib 0.03 | [4] -0.098 | [5] -0.086

AGPAT3 isoform 3 (UniProt Q9NRZ7)
inactive: nilotinib -0.005 | [1] -0.054 | dasatinib -0.04 | [2] -0.043 | [3] 0.011 | quisinostat -0.073 | tipifarnib -0.021 | [4] 0.017 | [5] 0.012 | [6] -0.042
